Experimental data: PubChem BioAssay AID1224826 (NIAID, 2016)

Assay: 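Genes that change LPS-induced Tnf promoter activity in mouse macrophages when knocked down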 (primary screen)
Cells: RAW264.7 G9 macrophages from mouse bearing reporters for p65 (GFP) and the Tnf promoter (mCherry)
Knock-down reagent: siRNA pool against mouse genes, 100 nM
Time to read-out: 16 h of LPS stimulation, after 2 days of siRNA transfection
Conditions: bacterial lipopolysaccharide (Salmonella minnesota R595), 10 ng/ml
Read-out: 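Imaged Tnf reporter mCherry in nuclei, minus background, normalised per plate to the median and expressed as robust z-scores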
Direction: Tnf reporter robust z-score: higher = stronger Tnf promoter reporter signal after LPS
Call rule: 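a well counts as active at a score of -1.3 or below (Tlr4 knock-down control median) or above 3 (raised signal); controls and wells holding fewer than 50 cells are excluded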
Meaning of the calls: active = Tnf reporter clearly lowered or raised; inactive = no clear change in Tnf reporter
Shown is a random part of about 17,000 deposited reagents. About 1,110 of all reagents (6.6%) were called active. 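Active means lowered or raised reporter signal; replicate intensities are raw and not normalised per plate.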 Entries without a mark were called inactive. Not all columns of the deposit are shown.

Atxn7
- Tnf reporter robust z-score: -0.85
- fewer than 50 cells in well: enough cells in well

Cnot8
- Tnf reporter robust z-score: 1.22
- fewer than 50 cells in well: enough cells in well

Cyp27a1
- Tnf reporter robust z-score: 1.82
- fewer than 50 cells in well: enough cells in well

Krt9
- Tnf reporter robust z-score: 0.67
- fewer than 50 cells in well: enough cells in well

Continued (2 carried over from the part before).
Cyp27a1
- Tnf reporter robust z-score: 1.82
- fewer than 50 cells in well: enough cells in well

Krt9
- Tnf reporter robust z-score: 0.67
- fewer than 50 cells in well: enough cells in well

Ciao3
- Tnf reporter robust z-score: -0.21
- fewer than 50 cells in well: enough cells in well

Noct
- Tnf reporter robust z-score: -0.49
- fewer than 50 cells in well: enough cells in well

Dnai4
- Tnf reporter robust z-score: 0.3
- fewer than 50 cells in well: enough cells in well

Slc18a3
- Tnf reporter robust z-score: 1.07
- fewer than 50 cells in well: enough cells in well

Pcdhb2
- Tnf reporter robust z-score: -0.1
- fewer than 50 cells in well: enough cells in well

Ms4a4b
- Tnf reporter robust z-score: -1.41 (active)
- fewer than 50 cells in well: enough cells in well

Cflar
- fewer than 50 cells in well: fewer than 50 cells per well; well left out of calls

Nckap1l
- Tnf reporter robust z-score: 1.71
- fewer than 50 cells in well: enough cells in well
